# Experimental data from US12201632B2, “Levoketoconazole for treatment of congenital adrenal hyperplasia and primary aldosteronism” (Strongbridge Dublin Limited, priority 2018, dated 2025).
# Some results were stated once for a whole list of compounds, not compound by compound.
# Test system: EAS associated adrenal hyperplasia no. 1 primary culture
# Assay: Steroid profile by LC/MS-MS in EAS associated adrenal hyperplasia no. 1
# Format: cell-based, human
# Conditions: EAS associated adrenal hyperplasia no. 1, 5 μM, basal and ACTH stimulated condition
# Experimental: To obtain primary cultures, adrenal specimens (adrenocortical adenomas, adrenal hyperplasias and adrenocortical carcinomas) were collected after adrenalectomy at the department of Surgery, Erasmus University Medical Center, Rotterdam, the Netherlands, between April 2016 and May 2018. The study was conducted under guidelines that have been approved by the Medical Ethics Committee of the Erasmus Medical Center and informed consent was obtained from all patients. Immediately after surgery, specimens were minced into small pieces of 2-3 mm^3, washed in culture medium and centrifuged for 5 minutes at 600 g. The tissue was stored overnight in culture medium at 4° C., where after the tissue was centrifuged again and the supernatant was removed. […] Cell viability and cell amount were counted by trypan blue exclusion. […]
# Cortisol concentrations were measured in the supernatant using a chemiluminescence immunoassay system (Immulite 2000XPi; Siemens DPC Inc., Los Angeles, Calif., USA). In addition, we carried out multi-steroid analysis by liquid chromatography/mass spectrometry (LC/MS-MS) to accurately quantify androstenedione, corticosterone, cortisol, 11-deoxycortisol, DHEA, DHEAS, progesterone, 17-hydroxyprogesterone, and testosterone. […] Steroids were quantified with respect to a calibration series, with internal standards. Steroids were quantified on a Xevo TQS LC-MS/MS (Waters Chromatography). […]
smiles,measurement,value
"CC(=O)N1CCN(c2ccc(OCC3COC(Cn4ccnc4)(c4ccc(Cl)cc4Cl)O3)cc2)CC1 (racemic) [racemic ketoconazole, Ketoconazole]",decrease of all steroids except progesterone,> 66%
